According to US20070231260A1, “Transporter-targeted methods of diagnosis and treatment” (priority 2005, published 2007):
At least one compound was matched to its structure with a doubt left.

Key:
MCT1 = biological target: T1, MCT1 (Homo sapiens, UniProt P53985); experiment: Uptake of bromopyruvate in cells not induced (-TET) or induced (+TET) to express MCT1; assay type: cell-based; settings: cells induced (+TET) vs not induced (-TET) to express MCT1; FIG. 1
T1 construct: expressed in transfected cells; host or cells: cells with TET-inducible MCT1 expression
T1 sequence (P53985 1-500): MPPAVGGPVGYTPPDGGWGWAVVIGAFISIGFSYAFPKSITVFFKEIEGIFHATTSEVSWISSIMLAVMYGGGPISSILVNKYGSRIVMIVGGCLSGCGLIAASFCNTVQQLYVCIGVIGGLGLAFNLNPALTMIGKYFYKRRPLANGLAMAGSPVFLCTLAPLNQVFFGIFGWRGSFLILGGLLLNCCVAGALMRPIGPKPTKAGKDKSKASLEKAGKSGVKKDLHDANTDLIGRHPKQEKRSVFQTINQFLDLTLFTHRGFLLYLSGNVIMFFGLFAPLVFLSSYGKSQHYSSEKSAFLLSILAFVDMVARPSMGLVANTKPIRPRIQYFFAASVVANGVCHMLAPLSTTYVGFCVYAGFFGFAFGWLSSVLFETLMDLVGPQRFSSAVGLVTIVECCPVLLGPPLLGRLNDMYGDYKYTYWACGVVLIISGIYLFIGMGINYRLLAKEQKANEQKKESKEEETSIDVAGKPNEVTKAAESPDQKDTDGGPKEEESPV
T1 sequence (P35613 140-385 partner limits assumed): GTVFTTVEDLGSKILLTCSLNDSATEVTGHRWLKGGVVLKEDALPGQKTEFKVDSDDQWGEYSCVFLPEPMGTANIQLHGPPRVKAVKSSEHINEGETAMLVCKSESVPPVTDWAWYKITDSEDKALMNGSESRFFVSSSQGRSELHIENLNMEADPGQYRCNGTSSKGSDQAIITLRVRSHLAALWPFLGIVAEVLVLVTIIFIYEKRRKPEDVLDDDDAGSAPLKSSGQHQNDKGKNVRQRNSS

cancer cell lines = experiment: Cytotoxicity (GI50) of bromopyruvate in cancer cell lines with varying MCT1 expression; assay type: cell-based; settings: several cancer cell lines; FIG. 3

O=C(O)C(=O)CBr [bromopyruvate, Bromopyruvate]
uptake/accumulation in cells expressing MCT1 (MCT1): accumulated in cells expressing MCT1 | correlation between GI50 and MCT1 mRNA levels (cancer cell lines): strong correlation
